Our source for the survivor count and T/C values is PubChem BioAssay AID276 (DTP/NCI, 2004).

The list is a part of this screen's results and no random one: it gathers tests that were run many times, whatever their T/C, doses with no T/C, and many T/C values between a quarter and a half above the control. Other doses and runs of a compound stand elsewhere. T/C: endpoint of the treated group in % of that of the vehicle group. Some entries give survivors of the animals treated and no T/C: the source files T/C as zero there, which appears to mark a toxic dose or a test without result, not a measured value. Some survivor counts are full or nearly so, which does not show that the dose was tolerated: survival well below the control is almost never listed, so the zero probably covers shortened survival too. Counts of survivors are from the toxicity check (mostly the fifth day) where no day follows; animals may have died later. Schedule codes are those of the source, taken here to give the interval after Q, in days (D) or hours (H), and the number of doses after X. Some entries hold several experiments; their values stand side by side, smallest first. For survival time, this PubChem deposit counts one and a half times the control or more as active, and values a quarter to a half above the control carry no call in these data; other NCI protocols may use other cut-offs.

The test system of this assay is B6C3F1 mice, Lewis lung carcinoma iv, survival T/C. The assay can be described thus: NCI In Vivo Anticancer Drug Screen. Data for tumor model Lewis Lung Carcinoma (intravenous) in B6C3F1 mice. Conditions: T/C endpoint: median survival time, higher T/C = longer survival. In outline: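 Antitumor activity is assessed in tumor-bearing mice by comparing survival after compound treatment against vehicle-treated controls, reported as a T/C ratio.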

Setting [1] is: dose: 200.0 mg/kg/injection, schedule: Q01DX009 (ip), vehicle: saline with Tween-80.
Setting [2] is: dose: 400.0 mg/kg/injection, schedule: Q01DX009 (ip), vehicle: saline with Tween-80.
Where [3] appears, read: dose: 25.0 mg/kg/injection, schedule: Q01DX009 (ip), vehicle: water.
[4] abbreviates: dose: 50.0 mg/kg/injection, schedule: Q01DX009 (ip), vehicle: water.
Where [5] appears, read: dose: 100.0 mg/kg/injection, schedule: Q01DX009 (ip), vehicle: saline.
Where [6] appears, read: dose: 200.0 mg/kg/injection, schedule: Q01DX009 (ip), vehicle: saline.
[7] abbreviates: dose: 400.0 mg/kg/injection, schedule: Q01DX009 (ip), vehicle: saline.
The mark [8] stands for this setting: dose: 50.0 mg/kg/injection, schedule: Q01DX009 (ip), vehicle: saline.
Where [9] appears, read: dose: 100.0 mg/kg/injection, schedule: Q01DX009 (ip), vehicle: saline with Tween-80.
Setting [10] is: dose: 12.5 mg/kg/injection, schedule: Q01DX009 (ip), vehicle: saline.
Where [11] appears, read: dose: 25.0 mg/kg/injection, schedule: Q01DX009 (ip), vehicle: saline.
[12] abbreviates: dose: 200.0 mg/kg/injection, schedule: Q01DX009 (ip), vehicle: Klucel (hydroxypropylcellulose) (HPC).

Regarding `CN(C)C1C(=O)C(C(=O)NP(=O)(NCCCO)N(CCCl)CCCl)=C(O)C2(O)C(=O)C3=C(O)c4c(O)cccc4C(C)(O)C3CC12` (configuration not stated), the survivor count is, setting by setting: under setting [1], 9 of 9; under setting [2], 10 of 10.
As to `CN1N=C(N)c2cn(C3OC(COP(=O)(O)O)C(O)C3O)c3ncnc1c23` (configuration not stated), the survivor count (dose: 12.5 mg/kg/injection, schedule: Q01DX009 (ip), vehicle: water) is 10 of 10; the survivor count under setting [3] is recorded as 10 of 10; the survivor count under setting [4] is given as 8 of 10; the survivor count (dose: 100.0 mg/kg/injection, schedule: Q01DX009 (ip), vehicle: water) is 7 of 10; the survivor count (dose: 200.0 mg/kg/injection, schedule: Q01DX009 (ip), vehicle: water) is recorded as 3 of 10.
Consider `C[CH2][Sn]1([CH2]C)[O]OC(c2ccccc2)[O]1` (configuration not stated), for which the survivor count (dose: 6.25 mg/kg/injection, schedule: Q01DX009 (ip), vehicle: saline with Tween-80) is recorded as 10 of 10 and the survivor count (dose: 25.0 mg/kg/injection, schedule: Q01DX009 (ip), vehicle: saline with Tween-80) is listed as 7 of 10.
Regarding `O=C1N(CC2CO2)CCN1CC1CO1` (configuration not stated), the survivor count reads like this: under setting [5], 10 of 10; under setting [6], 1 of 10; under setting [7], 0 of 10.
Regarding `N=C(N)Sc1cc(O)ccc1O`, the survivor count under setting [7] was 0 of 10.
On to `O=[N+]([O-])c1c(O)c(CNCCCO)cc(CNCCCO)c1O`, for which the survivor count runs as follows: under setting [8], 10 of 10; under setting [5], 0 of 10; under setting [6], 0 of 10.
For `Nc1nncs1`, the T/C (dose: 27.0 mg/kg/injection, schedule: Q01DX009 (ip), vehicle: Klucel (hydroxypropylcellulose) (HPC)) was 131 % of control. The survivor count (dose: 48.0 mg/kg/injection, schedule: Q01DX009 (ip), vehicle: Klucel (hydroxypropylcellulose) (HPC)) is recorded as 10 of 10.
Regarding `O=[n+]1c2ccccc2n([O-])c2ccccc21.[Cl][Ni][Cl]`, under “dose: 50.0 mg/kg/injection, schedule: Q01DX009 (ip), vehicle: saline with Tween-80”, the survivor count is 7 of 10.
As to `CN(C)C(=O)SC1=C(c2c(Cl)cccc2Cl)C(=O)c2ccccc21`, the survivor count (dose: 400.0 mg/kg/injection, schedule: Q01DX009 (ip), vehicle: Klucel (hydroxypropylcellulose) (HPC)) is recorded as 8 of 10.
`CCn1cnc2c(=S)nc[nH]c21`: the survivor count reads like this: under setting [5], 10 of 10; under setting [6], 8 of 10.
Regarding `c1ccc2sc(SSN3CC4CCC(CC4)C3)nc2c1`, under setting [2], the survivor count is listed as 1 of 10.
In the case of `NS(=O)(=O)OCCCCCCCOS(N)(=O)=O`, the survivor count under setting [9] is reported as 10 of 10 and the survivor count under setting [1] is on record as 10 of 10.
As to `COc1cccc2c1C(=O)c1c(O)c3c(c(O)c1C2=O)C[C@@](O)(/C(C)=N\O)C[C@@H]3OC1CC(N)C(O)C(C)O1` (some centres not stated), the survivor count is reported as 9 of 9 under setting [3] and 3 of 10 under setting [4].
`NC(=O)c1ncn2c(=O)n(CCCl)nnc12`: under setting [10], the T/C was 138 % of control. Also, the survivor count under setting [8] is on record as 9 of 10.
For `O=C1C=C2C(=CCOC2O)O1` (configuration not stated), the survivor count reads like this: (dose: 6.0 mg/kg/injection, schedule: Q01DX009 (ip), vehicle: saline) 1 of 10; (dose: 8.0 mg/kg/injection, schedule: Q01DX009 (ip), vehicle: Klucel (hydroxypropylcellulose) (HPC)) 0 of 10; (dose: 12.0 mg/kg/injection, schedule: Q01DX009 (ip), vehicle: saline) 0 of 10.
`CN(C)c1ccc2c(NCCCCCCNc3ccnc4cc(N(C)C)ccc34)ccnc2c1`: the survivor count (dose: 50.0 mg/kg/injection, schedule: Q01DX009 (ip), vehicle: distilled water + Tween-80 + alcohol) was 6 of 10.
Consider `N=C(N)CCCCCCCCC(=N)N`, for which the survivor count is, setting by setting: under setting [11], 6 of 10; (dose: 100.0 mg/kg/injection, schedule: Q01DX001 (ip), vehicle: saline) 0 of 10; (dose: 200.0 mg/kg/injection, schedule: Q01DX001 (ip), vehicle: saline) 0 of 10.
In the case of `O=C1C(O)=C(c2ccccc2)C(=O)C(O)=C1c1ccccc1`, the survivor count runs as follows: under setting [9], 4 of 10; under setting [5], 5 of 10.
For `O=C(O[Si](Cc1ccccc1)(Cc1ccccc1)Cc1ccccc1)N(CCCl)CCCl`, the survivor count is 10 of 10 under setting [1] and 9 of 10 under setting [2].
Turning to `CCNC(=O)[B-][N+](C)(C)C`, under setting [12], the survivor count was 7 of 10.
Consider `O=C(/C=C(\Cl)C(=O)NO)NO`, for which the T/C under setting [11] was 128 % of control. Besides, the survivor count under setting [6] is listed as 6 of 10.
For the compound `CCCCNCCCNCCCNC(=O)c1csc(-c2csc(CCNC(=O)C(NC(=O)C(C)C(O)C(C)NC(=O)C(NC(=O)c3nc(C(CC(N)=O)NCC(N)C(N)=O)nc(N)c3C)C(OC3OC(CO)C(O)C(O)C3OC3OC(CO)C(O)C(OC(N)=O)C3O)c3cnc[nH]3)C(C)O)n2)n1` (configuration not stated), the T/C (dose: 4.0 mg/kg/injection, schedule: Q01DX009 (ip), vehicle: saline) was 133 % of control. The survivor count is, setting by setting: (dose: 32.0 mg/kg/injection, schedule: Q01DX009 (ip), vehicle: saline) 10 of 10; (dose: 64.0 mg/kg/injection, schedule: Q01DX009 (ip), vehicle: saline) 10 of 10.
Turning to `C[C@@H]1C[C@@H]([C@H](O)CC2CC(=O)NC(=O)C2)C(=O)[C@@H](C)C1`, the survivor count is, setting by setting: under setting [8], 6 of 10; under setting [5], 5 of 10; under setting [6], 0 of 10.
In the case of `COC(=O)NC1C(C)OC(OC2C/C=C(/C)C3C=CC4C(OC5CC(OC6CCC(OC7CC(O)C(OC8CCC(O)C(C)O8)C(C)O7)C(C)O6)C(OC(C)=O)C(C)O5)C(C)CC(C)C4C3(C)/C(O)=C3/C(=O)OC4(CC(C=O)=CC(O)C4/C=C\2C)C3=O)CC1(C)[N+](=O)[O-]` (configuration not stated), the survivor count (dose: 10.0 mg/kg/injection, schedule: Q01DX009 (ip), vehicle: water) is recorded as 10 of 10 and the survivor count (dose: 20.0 mg/kg/injection, schedule: Q01DX009 (ip), vehicle: water) is recorded as 2 of 10.
`O=C(O)CCCCCCCC(=O)O`: the survivor count is, setting by setting: (dose: 200.0 mg/kg/injection, schedule: Q01DX009 (ip), vehicle: distilled water + Tween-80) 6 of 10; (dose: 400.0 mg/kg/injection, schedule: Q01DX009 (ip), vehicle: distilled water + Tween-80) 2 of 10.
For `O=NN(CCCl)C(=O)Oc1cc(Cl)c(Cl)cc1Cl`, the survivor count is given as 10 of 10 (dose: 92.5 mg/kg/injection, schedule: Q01DX009 (ip), vehicle: Klucel (hydroxypropylcellulose) (HPC)) and 2 of 10 (dose: 185.0 mg/kg/injection, schedule: Q01DX009 (ip), vehicle: Klucel (hydroxypropylcellulose) (HPC)).
For the compound `CCN(C)N=Nc1ccc(C(N)=O)cc1`, the survivor count is 10 of 10 (dose: 100.0 mg/kg/injection, schedule: Q01DX009 (ip), vehicle: Klucel (hydroxypropylcellulose) (HPC)) and 10 of 10 under setting [12].
Take `C[CH2][Sn]([CH2]C)([O]S(C)(=O)=O)[O]S(C)(=O)=O`: the survivor count is 9 of 10 (dose: 0.78 mg/kg/injection, schedule: Q01DX009 (ip), vehicle: saline); 9 of 10 (dose: 6.25 mg/kg/injection, schedule: Q01DX009 (ip), vehicle: saline); 7 of 10 under setting [10]; 0 of 10 under setting [11].
For `C[n+]1c(-c2cccc3ccccc23)c2cc(N)ccc2c2ccccc21`, the survivor count by setting is: under setting [10], 10 of 10; under setting [11], 7 of 10; under setting [8], 2 of 10.
Regarding `CCN(CC)CCOCCO`, the survivor count is recorded as 6 of 9 under setting [6] and 0 of 10 under setting [7].
Consider `CC1=C(O)C(=O)[C@@H]2O[C@@H]2C1=O`, for which the survivor count under setting [11] is 3 of 10 and 5 of 10.
